Earlier results on one compound are cited in paper PMC5385157 (Neuropharmacology, 2016).

Read-outs that look alike come from different tables or passages of the source.

The target in the data set is human α2AAR. The conditions noted are these: ref NIMH Psychoactive Drug Screening Program (PDSP) Ki Database, cited from earlier work.

As to `OCCN1CCN(CCCN2c3ccccc3Sc3ccc(C(F)(F)F)cc32)CC1` [Fluphenazine, fluphenazine], the Ki is 314 nM (read-out: Reported values at human α2AAR, Avg.) and 314 nM (read-out: Reported values at human α2AAR, Range).
